Results reported in the supplement of paper PMC4604168 (melanoma cell lines).
The list shows a part of the results. Repeats are few or missing, and single values can be far off.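 Cells were imaged in 1,536-well plates, and nuclei stained with an antibody against cleaved PARP were counted against all DNA-stained nuclei to give the apoptosis fraction. Screening doses were chosen to leave most cells alive, and resting and induced cleaved-PARP levels differ strongly between cell lines.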

Test system: MZ2-MEL
Experiment: cleaved PARP positive nuclei fraction relative to DMSO control; melanoma cells; higher = more apoptosis
Settings: library dose: low library concentration; 72 h

Structure (SMILES)	cleaved PARP positive nuclei fraction
COc1cc([C@@H]2c3cc4c(cc3[C@@H](O[C@@H]3O[C@@H]5CO[C@@H](C)O[C@H]5[C@H](O)[C@H]3O)[C@H]3COC(=O)[C@H]23)OCO4)cc(OC)c1O [etoposide] + COc1cc(N2CCC(N3CCN(C)CC3)CC2)ccc1Nc1ncc(Cl)c(Nc2ccccc2S(=O)(=O)C(C)C)n1 [NVP-TAE684] (first compound 0.02 µM, partner dose 0.08 µM)	31.2%
Cc1cc(Nc2cc(N3CCN(C)CC3)nc(Sc3ccc(NC(=O)C4CC4)cc3)n2)n[nH]1 [Tozasertib] + COc1cc(N2CCC(N3CCN(C)CC3)CC2)ccc1Nc1ncc(Cl)c(Nc2ccccc2S(=O)(=O)C(C)C)n1 [NVP-TAE684] (first compound 0.006 µM, partner dose 0.08 µM)	126%
CCCCCCCCCCCCCCCCCCOP(=O)([O-])OC1CC[N+](C)(C)CC1 [Perifosine] + O=S(=O)(c1ccccc1)N(CC(F)(F)F)c1ccc(C(O)(C(F)(F)F)C(F)(F)F)cc1 [T0901317] (first compound 0.4 µM, partner dose 1.4 µM)	98.7%
CC[C@]1(O)C[C@H]2CN(CCc3c([nH]c4ccccc34)[C@@](C(=O)OC)(c3cc4c(cc3OC)N(C=O)[C@H]3[C@@](O)(C(=O)OC)[C@H](OC(C)=O)[C@]5(CC)C=CCN6CC[C@]43[C@@H]65)C2)C1 [vincristine] + Cn1cncc1[C@@](N)(c1ccc(Cl)cc1)c1ccc2c(c1)c(-c1cccc(Cl)c1)cc(=O)n2C [tipifarnib] (first compound 0.0001 µM, partner dose 0.01 µM)	224%
Cc1cn(-c2cc(NC(=O)c3ccc(C)c(Nc4nccc(-c5cccnc5)n4)c3)cc(C(F)(F)F)c2)cn1 [nilotinib] + CN(NC(=O)CC(=O)NN(C)C(=S)c1ccccc1)C(=S)c1ccccc1 [STA4783] (first compound 0.2 µM, partner dose 0.006 µM)	141%
O=C(/C=C/c1cccnc1)NCCCCC1CCN(C(=O)c2ccccc2)CC1 + O=C(Nc1ccccc1)c1cc([N+](=O)[O-])ccc1Cl [GW9662] (first compound 0.01 µM, partner dose 2 µM)	813%
CC[C@]1(O)C[C@H]2CN(CCc3c([nH]c4ccccc34)[C@@](C(=O)OC)(c3cc4c(cc3OC)N(C=O)[C@H]3[C@@](O)(C(=O)OC)[C@H](OC(C)=O)[C@]5(CC)C=CCN6CC[C@]43[C@@H]65)C2)C1 [vincristine] + O=c1cc(-c2cccc3c2Sc2ccccc2S3)oc(N2CCOCC2)c1 [KU55933] (first compound 0.0001 µM, partner dose 1 µM)	365%
N#CC[C@H](C1CCCC1)n1cc(-c2ncnc3[nH]ccc23)cn1 [ruxolitinib] + NCC(=O)Nc1ccc(-n2nc(C(F)(F)F)cc2-c2ccc3c(ccc4ccccc43)c2)cc1 [OSU03012] (first compound 1 µM, partner dose 1 µM)	194%
O=c1[nH]nc(Sc2ncc([N+](=O)[O-])s2)n1-c1ccc2c(c1)OCCO2 + CC(C)CCN1c2nc(Nc3cc(F)c(O)c(F)c3)ncc2N(C)C(=O)C1C [BID1870] (first compound 0.2 µM, partner dose 0.2 µM)	190%
Cc1cn(-c2cc(NC(=O)c3ccc(C)c(Nc4nccc(-c5cccnc5)n4)c3)cc(C(F)(F)F)c2)cn1 [nilotinib] + O=C(Nc1cccc(Cl)c1)Nc1ncc(CCNc2ncnc3ccsc23)s1 [SNS314] (first compound 0.2 µM, partner dose 0.0008 µM)	111%
Cc1ccc(Nc2nccc(N(C)c3ccc4c(C)n(C)nc4c3)n2)cc1S(N)(=O)=O [Pazopanib] + O=S(=O)(c1ccccc1)N(CC(F)(F)F)c1ccc(C(O)(C(F)(F)F)C(F)(F)F)cc1 [T0901317] (first compound 0.4 µM, partner dose 1.4 µM)	31.3%
CCCCCCCCCCCCCCCCCCOP(=O)([O-])OC1CC[N+](C)(C)CC1 [Perifosine] + CC(C)(C)c1cnc(CSc2cnc(NC(=O)C3CCNCC3)s2)o1 [SNS-032] (first compound 0.4 µM, partner dose 0.01 µM)	96.7%

Test system: MeWo
Experiment: as above
Settings: library dose: low library concentration; 72 h

Structure (SMILES)	cleaved PARP positive nuclei fraction
O=c1[nH]nc(Sc2ncc([N+](=O)[O-])s2)n1-c1ccc2c(c1)OCCO2 + COc1ccc(COc2ccc(Cc3cnc(N)nc3N)cc2OC)cc1 [GW2580] (first compound 0.2 µM, partner dose 1 µM)	76.2%
COc1cc([C@@H]2c3cc4c(cc3[C@@H](O[C@@H]3O[C@@H]5CO[C@@H](C)O[C@H]5[C@H](O)[C@H]3O)[C@H]3COC(=O)[C@H]23)OCO4)cc(OC)c1O [etoposide] + O=S(=O)(c1ccccc1)N(CC(F)(F)F)c1ccc(C(O)(C(F)(F)F)C(F)(F)F)cc1 [T0901317] (first compound 0.02 µM, partner dose 1.4 µM)	71.7%
O=c1[nH]nc(Sc2ncc([N+](=O)[O-])s2)n1-c1ccc2c(c1)OCCO2 + O=S(=O)(c1ccccc1)N(CC(F)(F)F)c1ccc(C(O)(C(F)(F)F)C(F)(F)F)cc1 [T0901317] (first compound 0.2 µM, partner dose 1.4 µM)	147%
Cc1cc(Nc2cc(N3CCN(C)CC3)nc(Sc3ccc(NC(=O)C4CC4)cc3)n2)n[nH]1 [Tozasertib] + Cn1cncc1[C@@](N)(c1ccc(Cl)cc1)c1ccc2c(c1)c(-c1cccc(Cl)c1)cc(=O)n2C [tipifarnib] (first compound 0.006 µM, partner dose 0.01 µM)	105%
CC[C@]1(O)C[C@H]2CN(CCc3c([nH]c4ccccc34)[C@@](C(=O)OC)(c3cc4c(cc3OC)N(C=O)[C@H]3[C@@](O)(C(=O)OC)[C@H](OC(C)=O)[C@]5(CC)C=CCN6CC[C@]43[C@@H]65)C2)C1 [vincristine] + c1cc(-c2cnn3cc(-c4ccc(OCCN5CCCCC5)cc4)cnc23)ccn1 [Dorsomorphin] (first compound 0.0001 µM, partner dose 0.4 µM)	132%
Cc1ccc(Nc2nccc(N(C)c3ccc4c(C)n(C)nc4c3)n2)cc1S(N)(=O)=O [Pazopanib] + CN(NC(=O)CC(=O)NN(C)C(=S)c1ccccc1)C(=S)c1ccccc1 [STA4783] (first compound 0.4 µM, partner dose 0.006 µM)	85.8%
Cc1cn(-c2cc(NC(=O)c3ccc(C)c(Nc4nccc(-c5cccnc5)n4)c3)cc(C(F)(F)F)c2)cn1 [nilotinib] + COc1ccc(COc2ccc(Cc3cnc(N)nc3N)cc2OC)cc1 [GW2580] (first compound 0.2 µM, partner dose 1 µM)	82.6%
COc1cc([C@@H]2c3cc4c(cc3[C@@H](O[C@@H]3O[C@@H]5CO[C@@H](C)O[C@H]5[C@H](O)[C@H]3O)[C@H]3COC(=O)[C@H]23)OCO4)cc(OC)c1O [etoposide] + C[C@@H]1CCN(C(=O)CC#N)C[C@@H]1N(C)c1ncnc2[nH]ccc12 [CP690550] (first compound 0.02 µM, partner dose 1 µM)	84.6%
Cc1cn(-c2cc(NC(=O)c3ccc(C)c(Nc4nccc(-c5cccnc5)n4)c3)cc(C(F)(F)F)c2)cn1 [nilotinib] + Cn1cc(/C=C2\C(=O)Nc3cccnc32)c2ccccc21 [GW441756] (first compound 0.2 µM, partner dose 0.4 µM)	93.5%
Cc1cn(-c2cc(NC(=O)c3ccc(C)c(Nc4nccc(-c5cccnc5)n4)c3)cc(C(F)(F)F)c2)cn1 [nilotinib] + O=c1cc(-c2cccc3c2Sc2ccccc2S3)oc(N2CCOCC2)c1 [KU55933] (first compound 0.2 µM, partner dose 1 µM)	240%
CC[C@]1(O)C[C@H]2CN(CCc3c([nH]c4ccccc34)[C@@](C(=O)OC)(c3cc4c(cc3OC)N(C=O)[C@H]3[C@@](O)(C(=O)OC)[C@H](OC(C)=O)[C@]5(CC)C=CCN6CC[C@]43[C@@H]65)C2)C1 [vincristine] + NC(=O)Nc1cc(-c2cccc(F)c2)sc1C(=O)N[C@H]1CCCNC1 [AZD7762] (first compound 0.0001 µM, partner dose 0.02 µM)	34%
CCCCCCCCCCCCCCCCCCOP(=O)([O-])OC1CC[N+](C)(C)CC1 [Perifosine] + COc1ccc2c(c1)CCC1C2CCC2(C)C(NCCCCCCN3C(=O)C=CC3=O)CCC12 [U73122] (first compound 0.4 µM, partner dose 0.4 µM)	119%
Cc1cn(-c2cc(NC(=O)c3ccc(C)c(Nc4nccc(-c5cccnc5)n4)c3)cc(C(F)(F)F)c2)cn1 [nilotinib] + Cc1ccc(NC(=O)c2cccc(N(C)C)c2)cc1NC(=O)c1ccc(O)cc1 [ZM336372] (first compound 0.2 µM, partner dose 2 µM)	31.5%
CC[C@]1(O)C[C@H]2CN(CCc3c([nH]c4ccccc34)[C@@](C(=O)OC)(c3cc4c(cc3OC)N(C=O)[C@H]3[C@@](O)(C(=O)OC)[C@H](OC(C)=O)[C@]5(CC)C=CCN6CC[C@]43[C@@H]65)C2)C1 [vincristine] + O=C(Nc1cccc(Cl)c1)Nc1ncc(CCNc2ncnc3ccsc23)s1 [SNS314] (first compound 0.0001 µM, partner dose 0.0008 µM)	141%

No new results follow: an excerpt of the list.
Structure (SMILES)	cleaved PARP positive nuclei fraction
Cc1ccc(Nc2nccc(N(C)c3ccc4c(C)n(C)nc4c3)n2)cc1S(N)(=O)=O [Pazopanib] + CN(NC(=O)CC(=O)NN(C)C(=S)c1ccccc1)C(=S)c1ccccc1 [STA4783] (first compound 0.4 µM, partner dose 0.006 µM)	85.8%
Cc1cn(-c2cc(NC(=O)c3ccc(C)c(Nc4nccc(-c5cccnc5)n4)c3)cc(C(F)(F)F)c2)cn1 [nilotinib] + COc1ccc(COc2ccc(Cc3cnc(N)nc3N)cc2OC)cc1 [GW2580] (first compound 0.2 µM, partner dose 1 µM)	82.6%
